Patent US20230227580A1, “ANTI-VWF ANTIBODIES AND USES THEREOF” (MONASH UNIVERSITY, priority 2020, published 2023)

Test system: platelet aggregation / thrombus formation
Test: Progressive shear gradient flow model: whole blood over collagen type I patches in straight channels
Assay type: cell-based, human
Text: Fluid dynamics were simulated with a COMSOL Multiphysics 4.2 laminar flow module applied to three-dimensional meshes. For all simulations, no-slip boundary conditions and Newtonian fluids were assumed. To obtain meshes from the plain channel geometries, channel dimensions were taken from the original computer-aided design (CAD) files and reconstructed in COMSOL. To obtain meshes from platelet aggregate geometries, confocal fluorescence microscopy image z-stacks of labeled platelets were processed in ImageJ. Each image in a z-stack was converted into a binary image by thresholding, and an x-y heightmap was constructed by summing all binary data in a z-stack followed by multiplying the result with the height of the original z-stack as documented by the confocal microscope. […] Input flow parameters were set based on pump settings as used in the experiments, and were adjusted to account for the reduced width of the fluorescence aggregate meshes compared to the full channel geometries. […]
Citrated whole blood was incubated with DiOC6 (0.5 µg ml^-1) (Sigma-Aldrich Co, St. Louis, MO, USA) and drawn through microfluidic channels by a programmable syringe pump (Legato 130, KD Scientific, USA). […] Platelet deposition was recorded over time (2 frames per minute) for up to 20 minutes and quantified in ImageJ using a Z-projection of the acquired signal.

B1: scFv A1: single chain antibody combining variable heavy chain of mAb CR1 with variable light chain of mAb CR2; VH SEQ ID NO: 11, VL SEQ ID NO: 10 (antibody, V domains shown)
VH: QVQLQQPGAELVRPGASVKLSCKASGYSFTNYWMSWVKQRPGQGLEWIGMIHPSDSDTRLNQKFKDKATLTVDKSSSTAYMQLSSPTSEDSAGLLLCKKFEGWLPVLLGPRHHSHSLLS
VL: DIELTQSPASLAVSLGQSYRASCKSVSTSGYSYMHWNQQKPGQPPRLLIYLVSNLESGVPARFSGSGSGTDFTLNIHPVEEEDAATYYCQHIRELTRSEGDQAEINR
modifications: scFv linker; Mouse
How did the “Calculated maximum shear rate gradient” value (CFD on platelet aggregates, control 4.9) turn out when B1 was run?
Its value is 3.1 s^-1/µm.

And the “Aggregate surface shear rates at the front area (CFD analysis)” value (scFv A1 5 µg ml^-1, 1,000 s^-1)?
Its value is “reduced aggregate surface shear rates”.
